Data published in patent publication US8785384B2 (Chemical & Biopharmaceutical Laboratories of Patras, priority 2010, dated 2014).

Experiment: general procedure: Fmoc solid-phase peptide synthesis; 2-chlorotrityl chloride (CTC) resin or 4-methylbenzhydryl (MBH) resin
Conditions: late stage modification step, trifluoroacetic acid salt

## RLX1B (B-chain SEQ ID NO: 3) (KWKDDVIKLCGRELVRAQIAICGMSTWS; listed as Homo sapiens)
  step yield: 62%
